Reference: publication PMC12147176, “Unstructured protein domains stabilize RNA binding and mediate RNA folding by AUF1”
For some assays here: A negative result means that nothing was seen under these conditions. Protein sequences can lack the tags named with them. For some assays here: For at least one entry, the source does not settle the construct or the ends of the probe.

Legend:
[1] = tested on: T1, His6-p37AUF1(78-287) (human); assay: fluorescence anisotropy; conditions: first site (Kd1), 50 mM KCl; Anisotropy: 10 mM Tris-HCl pH 8.0, 100 mM KCl (50 mM for Fl-ARE2), 0.5 mM EDTA, 0.1 ug/ul acetylated BSA, 1 ug/ul heparin, 2 mM DTT, 25 C, RNA 0.2-0.4 nM; recombinant protein; residues 78-287; protein details: N-term MSHHHHHHGT; label: 5' fluorescein
T1 sequence (looked up): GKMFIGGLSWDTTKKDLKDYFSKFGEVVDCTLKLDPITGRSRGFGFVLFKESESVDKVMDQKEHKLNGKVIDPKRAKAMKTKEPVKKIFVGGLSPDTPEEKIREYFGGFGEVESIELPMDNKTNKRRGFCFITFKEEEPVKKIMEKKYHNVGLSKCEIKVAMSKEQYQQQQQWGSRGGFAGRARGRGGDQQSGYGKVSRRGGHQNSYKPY

[2] = tested on: T2, His6-p37AUF1 W87F (human); assay: Trp fluorescence and iodide quenching; conditions: 2 uM each, KSV 6.34 M-1, not significant; recombinant protein; residues 1-287; protein details: N-term His6
T2 sequence (looked up): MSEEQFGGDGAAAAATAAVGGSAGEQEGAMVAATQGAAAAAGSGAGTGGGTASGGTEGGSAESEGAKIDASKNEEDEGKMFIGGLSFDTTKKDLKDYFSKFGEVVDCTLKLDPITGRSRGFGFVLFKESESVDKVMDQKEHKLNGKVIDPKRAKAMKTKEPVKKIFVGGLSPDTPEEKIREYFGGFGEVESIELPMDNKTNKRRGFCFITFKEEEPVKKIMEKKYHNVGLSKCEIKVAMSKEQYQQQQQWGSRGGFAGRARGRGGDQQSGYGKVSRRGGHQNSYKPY

Sequence | Kd [1] | binding result [2]
GUGAUUAUUUAUUAUUUAUUUAUUAUUUAUUUAUUUAG [Fl-ARE2] | 104 nM | –
UGGCCAAUGCCCUGGCUCACAAAUACCACUG [Rβ (unlabeled)] | – | no binding
